This note sets out measurements from the supplement of paper PMC11098740.

Chains of the proteins cited; added tags and fusions are not shown.
UniProt O14980, whole entry: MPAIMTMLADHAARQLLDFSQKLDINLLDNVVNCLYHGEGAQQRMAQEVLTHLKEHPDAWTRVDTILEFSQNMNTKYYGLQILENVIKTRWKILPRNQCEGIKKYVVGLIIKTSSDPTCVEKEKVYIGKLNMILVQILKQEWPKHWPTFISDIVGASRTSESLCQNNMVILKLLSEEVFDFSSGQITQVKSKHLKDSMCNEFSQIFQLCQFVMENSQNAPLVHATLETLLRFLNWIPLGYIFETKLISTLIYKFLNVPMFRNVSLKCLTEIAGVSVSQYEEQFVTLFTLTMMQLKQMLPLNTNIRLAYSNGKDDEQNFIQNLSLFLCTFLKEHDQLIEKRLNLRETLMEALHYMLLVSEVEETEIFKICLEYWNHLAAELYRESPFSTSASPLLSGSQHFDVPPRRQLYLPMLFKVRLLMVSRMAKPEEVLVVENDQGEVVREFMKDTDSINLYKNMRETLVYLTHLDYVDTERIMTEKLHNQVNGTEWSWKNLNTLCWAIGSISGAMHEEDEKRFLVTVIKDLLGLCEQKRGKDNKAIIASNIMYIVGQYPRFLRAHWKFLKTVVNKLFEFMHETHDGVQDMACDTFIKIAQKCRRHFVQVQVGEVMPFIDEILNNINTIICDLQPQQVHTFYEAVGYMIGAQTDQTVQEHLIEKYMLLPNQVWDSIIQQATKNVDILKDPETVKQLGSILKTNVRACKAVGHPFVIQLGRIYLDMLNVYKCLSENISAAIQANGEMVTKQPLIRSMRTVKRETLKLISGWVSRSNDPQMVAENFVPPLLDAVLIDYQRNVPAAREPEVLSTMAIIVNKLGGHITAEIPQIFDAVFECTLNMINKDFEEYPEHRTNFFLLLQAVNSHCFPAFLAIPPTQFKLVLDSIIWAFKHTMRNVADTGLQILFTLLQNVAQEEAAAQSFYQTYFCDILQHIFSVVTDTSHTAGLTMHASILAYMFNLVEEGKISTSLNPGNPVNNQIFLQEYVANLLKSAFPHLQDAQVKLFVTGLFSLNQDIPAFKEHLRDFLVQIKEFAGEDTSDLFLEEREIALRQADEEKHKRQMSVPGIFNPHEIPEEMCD

The target in assay [1] is XPO1 (intron 15 mScarlet tag, HAP1) (UniProt O14980). Description: XPO1 fluorescence intensity change vs DMSO (log2 fold change); higher = more XPO1 protein. The note with it: 6 h.
Assay [2] concerns the target BRD4 (intron 10 mScarlet tag, HAP1) (UniProt O60885). Briefly: BRD4 median nuclear fluorescence intensity change vs DMSO (log2 fold change); higher = more BRD4 protein. The settings on record: 6 h.

This is one part of the list. Single values are uncertain, as repeats are few or missing.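 Pooled together, 41 HAP1 clones carry intronic fluorescent tags on 61 cancer-associated proteins, and each clone is recognized by its imaging pattern. Measurements are benchmarked against DMSO-treated control wells. dBET6, a BRD4 degrader, served as the positive control.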

Consider `COc1ccccc1Oc1c(NS(=O)(=O)c2ccc(C(C)(C)C)cc2)nc(-c2ncccn2)nc1OCCO` [Bosentan] (9.99938 µM), for which the “XPO1 fluorescence intensity change (log2)” value in assay [1] was -0.0287. Same read-out and setting: the result for `O=C(C1CCCCC1)N1CC(=O)N2CCc3ccccc3C2C1` (stereo unspecified) [Praziquantel] (9.99966 µM) reads -0.0367; that for `C=CC[C@@H]1/C=C(\C)C[C@H](C)C[C@H](OC)[C@H]2O[C@@](O)(C(=O)C(=O)N3CCCC[C@H]3C(=O)O[C@H](/C(C)=C/[C@@H]3CC[C@@H](O)[C@H](OC)C3)[C@H](C)[C@@H](O)CC1=O)[C@H](C)C[C@@H]2OC` [Tacrolimus] (20 µM), -0.0791. Turning to `NCCc1ccc(O)c(O)c1` [Dopamine] (10.0004 µM), the “XPO1 fluorescence intensity change (log2)” value in assay [1] was -0.00119. `Nc1nc2c(ncn2COC(CO)CO)c(=O)[nH]1` [Ganciclovir] (10 µM): the “XPO1 fluorescence intensity change (log2)” value in assay [1] was -0.0639. Regarding `Cn1nnc2c(C(N)=O)ncn2c1=O` [Temozolomide] (20 µM), in assay [1], the “XPO1 fluorescence intensity change (log2)” value is 0.171. Turning to `CCCN[C@H]1CCc2nc(N)sc2C1` [Pramipexole] (10.00012856 µM), the “XPO1 fluorescence intensity change (log2)” value in assay [1] is -0.103. Take `CCOC(=O)c1c(-c2ccc(C)o2)csc1NC(=O)CCCl` (10 µM): the “XPO1 fluorescence intensity change (log2)” value in assay [1] came out at 0.096. Also, the “BRD4 median nuclear fluorescence intensity change (log2)” value in assay [2] stood at 0.107. With `Cc1cc(N(C)Cc2ccccc2Br)nc(N)n1` (10 µM), the “XPO1 fluorescence intensity change (log2)” value in assay [1] came to 0.138. Further, the “BRD4 median nuclear fluorescence intensity change (log2)” value in assay [2] worked out at 0.17. As for `COCCCC/C(=N\OCCN)c1ccc(C(F)(F)F)cc1` [Fluvoxamine] (9.99978 µM), the “XPO1 fluorescence intensity change (log2)” value in assay [1] amounted to 0.0195. Turning to `CC(=O)c1c(C)cc(C)c(CN(Cc2ccc3c(c2)CCO3)C2CCN(C(C)=O)CC2)c1C` (1 µM), the “XPO1 fluorescence intensity change (log2)” value in assay [1] worked out at 0.131. Besides, the “BRD4 median nuclear fluorescence intensity change (log2)” value in assay [2] is 0.00664.

For `O=C(NCCCOCc1ccco1)c1cc2c(nc3sccn32)s1` (10 µM), the “XPO1 fluorescence intensity change (log2)” value in assay [1] was 0.137. For the same compound, the “BRD4 median nuclear fluorescence intensity change (log2)” value in assay [2] was determined as 0.0919.
